The whole screen tested about 300,000 compounds, of which about 3,700 (1.2%) were called active. Inconclusive results, whose numbers are uncertain, are shown with a selection of clear calls. Calls follow the shape of the full dose curve; tested in HEK293 cells. A potency beside an inconclusive call is a rough fit, not a confirmed value.
Test: qHTS for Inhibitors of binding or entry into cells for Lassa Virus; also: nearly all actives have a fitted effect of over 50% in size
Conditions: Lassa virus pseudotype entry inhibition, cell reporter; series mostly up to 37.9 µM
Potency is read from the fitted curve at half-maximal effect.

SMILES	Potency
O=S(=O)(Nc1ccc2c3c(cccc13)CC2)c1ccc(F)cc1	inactive
S=c1[nH]c(-c2cccs2)cn1-c1ccccc1	inconclusive: 4.47 µM [activator, single point]
COc1ccccc1CNC(=O)C1CCCN(S(=O)(=O)c2ccc3c(c2)oc(=O)n3C)C1 (configuration not stated)	inactive
Nc1cc(-c2ccco2)no1	inactive
O=C(CN(Cc1ccco1)C(=O)c1ccc(Cl)cc1)Nc1ccc(Cl)c(Cl)c1	inactive
COC(=O)c1c(NC(=O)c2ccco2)sc(C)c1C	inactive
COc1ccc(S(=O)(=O)N2CCC(C(=O)NCCCn3ccnc3)CC2)cc1C	inconclusive: 6.31 µM [inhibitor, single point]
Cc1cc(C)n2nc(CC#N)c(C#N)c2n1	inactive
CCOC(=O)c1ccc(N2C(=O)c3[nH]nc(-c4ccccc4)c3C2c2ccc(CC)cc2)cc1 (configuration not stated)	inconclusive: 12.6 µM [inhibitor, partial curve]
N#Cc1c(N)nc(SCc2ccncc2)c(C#N)c1-c1cccs1	inconclusive: 0.184 µM [inhibitor, single point]
COc1ccc(N2CCN(CCNC(=O)Nc3cc(Cl)ccc3Cl)CC2)cc1	inactive
Cc1cccc2c3nc4ccccc4nc3n(C)c12	inconclusive: 7.08 µM [activator, full curve, poor fit]
COc1cccc2cc(-c3cn4cccc(C)c4n3)c(=O)oc12	inconclusive: 1.46 µM [activator, full curve, poor fit]
Cc1cccnc1CCNC(=O)CCc1nnc(CCc2ccccc2)o1	inactive
Cc1c(NC(=O)/C(C#N)=C/c2ccc(-c3ccc(Cl)c(Cl)c3)o2)c(=O)n(-c2ccccc2)n1C	inconclusive: 1.26 µM [activator, single point]
O=[N+]([O-])c1ccccc1NCCNc1ncc(C(F)(F)F)cc1Cl	inactive
CSc1nsc(SC)c1C(=O)O	inconclusive: 35.5 µM [activator, partial curve, poor fit]
O=C(N/N=C/c1c(Cl)cccc1Cl)c1ccc(F)cc1	inactive
O=C(NC(NC(=S)Nc1ccccc1)C(Cl)(Cl)Cl)c1cccc(Cl)c1 (configuration not stated)	inconclusive: 29.1 µM [inhibitor, single point]
CCCCCOc1ccc(Br)cc1/C(C)=N/NC1=NCCN1	inconclusive: 17.8 µM [inhibitor, partial curve, poor fit]
CCCC(=O)Nc1ccc(NC(=O)c2ccco2)cn1	inactive
CCN(c1ccccc1)S(=O)(=O)c1ccc(NC(=O)c2nc(SC)ncc2Cl)cc1	inconclusive: 0.562 µM [inhibitor, full curve, poor fit]
COc1ccc(C2c3c(-c4ccccc4O)n[nH]c3C(=O)N2CCc2ccc(OC)c(OC)c2)cc1 (configuration not stated)	active: 5.01 µM

SMILES	Potency
Cc1cccc(-n2c(SCC(=O)Nc3ncc(Cl)cc3Cl)nc3ccccc32)c1	active: 0.82 µM
COc1ccc(-c2ccc(CCC(=O)O)n2CC(C)C)cc1	inconclusive: 25.9 µM [inhibitor, single point]
Cc1ccc(-n2c(SCC(=O)N/N=C/C=C/c3ccccc3[N+](=O)[O-])nc3ccccc3c2=O)cc1	inconclusive: 5.8 µM [inhibitor, partial curve, poor fit]
CCOC(=O)CCP(=O)(O)C(C)(O)c1ccccc1 (configuration not stated)	inconclusive: 29.1 µM [activator, single point]
O=S(=O)(c1ccc(F)c(F)c1F)N1CCN(c2ncnc3sccc23)CC1	inconclusive: 7.94 µM [inhibitor, partial curve, poor fit]
COc1ccc(NC(=O)CN(C)C(=O)c2sc3ccccc3c2Cl)cc1	inconclusive: 10 µM [inhibitor, partial curve]
COc1cc(/C=N/NC(=O)c2cc(-c3cccc(Br)c3)nc3ccccc23)cc(OC)c1O	inconclusive: 35.5 µM [inhibitor, single point]
CCOc1ccccc1NC(=O)CN1C(=O)COc2ccc(S(=O)(=O)N3CCOCC3)cc21	inconclusive: 35.5 µM [activator, single point]
Cc1ccc(/C=C2\SC(=S)N(Cc3ccccc3)C2=O)o1	inconclusive: 0.0041 µM [activator, full curve, poor fit]
O=C(C[n+]1ccc(-c2cc(C(=O)Nc3cccc(C(F)(F)F)c3)c3ccccc3n2)cc1)c1cccc([N+](=O)[O-])c1	inactive
CCOC(=O)c1cc(-c2ccc(OC)cc2)n(CCC(=O)Nc2ccccc2OC)c1C	inconclusive: 11.2 µM [inhibitor, partial curve, poor fit]
CC(C)CCNC(=O)CNC(=S)N(CCCN1CCOCC1)Cc1cccs1	inconclusive: 25.1 µM [inhibitor, single point]
CCCN(CC(=O)Nc1ccccc1C)C(=O)c1ccc(N2CCCC(C)C2)c([N+](=O)[O-])c1 (configuration not stated)	inactive
Cc1ccc2nsnc2c1S(=O)(=O)N(Cc1ccco1)Cc1cc2cccc(C)c2[nH]c1=O	inconclusive: 1.64 µM [inhibitor, partial curve, poor fit]
COC1=CC(=O)OC(/C=C/c2ccccc2)C1 (configuration not stated)	inactive
CCC(CC)C(=O)OCc1cc(=O)n2nc(C3CC3)sc2n1	inactive
Cn1c(SCC(=O)N2CCOCC2)nc2c(c1=O)SCC2	inactive
CCOc1ccc(CC(=O)NCCS(=O)(=O)N2CCN(c3ccccc3)CC2)cc1	inconclusive: 1 µM [inhibitor, full curve, poor fit]
CC(C(=O)Nc1ccccc1C(=O)N1CCCC1)n1nnc2ccccc21 (configuration not stated)	inconclusive: 6.51 µM [activator, single point]
CCN(Cc1nc2ccccc2c(=O)[nH]1)C(=O)c1cccc(OCc2c(C)noc2C)c1	inconclusive: 31.6 µM [inhibitor, single point]
Cn1cc(-c2cc3n(n2)CCC(=O)N3CCCC(=O)NCc2ccc(Cl)cc2)c2ccccc21	inconclusive: 8.91 µM [inhibitor, partial curve, poor fit]
COC(=O)CCSc1nc(N2CCOCC2)c2c(c1C#N)CC(C)(C)OC2	inconclusive: 35.5 µM [activator, partial curve, poor fit]
O=C(CNc1cccc(S(=O)(=O)N2CCCC2)c1)Nc1cccc(C(F)(F)F)c1	inconclusive: 35.5 µM [inhibitor, single point]

SMILES	Potency
COc1ccc(CCNC(=O)c2cccs2)cc1	inconclusive: 6.31 µM [activator, full curve, poor fit]
COc1ccc(-c2cn[nH]c2-c2ccc(OCC(=O)NN)cc2O)cc1OC	inconclusive: 1.58 µM [activator, partial curve]
Cc1cc(C)cc(OCC(=O)Nc2ccc(S(=O)(=O)Nc3ccccn3)cc2)c1	inconclusive: 0.562 µM [inhibitor, full curve, poor fit]
O=C(/C(=C/c1ccc(Cl)cc1)c1nc2ccccc2[nH]1)c1ccccc1	active: 4.11 µM
Cc1ccccc1C(=O)Nc1nnc(S(=O)(=O)N(C)Cc2ccccc2)s1	inconclusive: 2 µM [inhibitor, partial curve, poor fit]
Cn1nccc1C(=O)NC1CCCc2c1cnn2-c1ccc(F)cc1F (configuration not stated)	inconclusive: 20 µM [inhibitor, partial curve, poor fit]
CCOC(=O)c1cc(CC)sc1N1C(=O)CC(Sc2ccccc2C(=O)O)C1=O (configuration not stated)	inactive
OCCNc1nc2ccccc2n1-c1ncnc2sc3c(c12)CCC3	inconclusive: 11.2 µM [inhibitor, single point]
COC(=O)C1(Cc2ccc3c(c2)CCC3)Cc2ccc3c(c2C1=O)CCC3 (configuration not stated)	inconclusive: 14.1 µM [inhibitor, single point]
CCOc1ccc(C(c2nnnn2Cc2ccccc2)N2CCN(C(=O)c3ccco3)CC2)cc1 (configuration not stated)	inconclusive: 14.1 µM [inhibitor, partial curve, poor fit]
CCOc1ccc(CN2CCc3nc(N4CCN(c5ccccc5OC)CC4)ncc3C2)cc1OC	inconclusive: 12.6 µM [inhibitor, single point]
CC(C)(C)OC(=O)N1CCC(c2c(C(=O)NCc3cccc(Cl)c3)cnn2-c2ccc(F)cc2)CC1	inconclusive: 6.31 µM [inhibitor, full curve, poor fit]
Cc1ccc(CN(C)c2ccc(S(=O)(=O)N3CCCC3)cn2)cc1	inconclusive: 35.5 µM [inhibitor, single point]
COc1ccc(Br)cc1-c1nc2c(c(=O)[nH]c(=O)n2Cc2ccccc2)n1C	inconclusive: 0.794 µM [inhibitor, full curve, poor fit]
O=C(Nc1cc(-c2nc3ccccc3o2)ccc1Cl)c1sc2c([N+](=O)[O-])cccc2c1Cl	inactive
COc1ccccc1C(=O)NCCC(=O)N(C)Cc1ccc(C)o1	inactive
O=C(NNC(=S)Nc1ccccc1C(F)(F)F)c1cccnc1	inactive
COc1ccc(NC(=O)CC2C(=O)N(c3cccc(OC)c3)C(=O)N2CCc2cccs2)cc1 (configuration not stated)	inconclusive: 14.1 µM [inhibitor, partial curve, poor fit]
NC(=O)c1ccc(Oc2ccc3ccc(=O)oc3c2)c([N+](=O)[O-])c1	inactive
CCN(CC(=O)Nc1ccc(NC(C)=O)cc1)C(=O)C1CC(=O)N(Cc2ccc(C)cc2)C1 (configuration not stated)	inconclusive: 0.316 µM [activator, partial curve, poor fit]
Cc1c(C(=O)OCC(=O)Nc2ccc(C(=O)N(C)C)cc2)oc2ccccc12	inconclusive: 5.62 µM [inhibitor, partial curve, poor fit]

Nothing new here: entries from further up.
SMILES	Potency
Cc1cc(C)cc(OCC(=O)Nc2ccc(S(=O)(=O)Nc3ccccn3)cc2)c1	inconclusive: 0.562 µM [inhibitor, full curve, poor fit]
O=C(/C(=C/c1ccc(Cl)cc1)c1nc2ccccc2[nH]1)c1ccccc1	active: 4.11 µM
Cc1ccccc1C(=O)Nc1nnc(S(=O)(=O)N(C)Cc2ccccc2)s1	inconclusive: 2 µM [inhibitor, partial curve, poor fit]
Cn1nccc1C(=O)NC1CCCc2c1cnn2-c1ccc(F)cc1F (configuration not stated)	inconclusive: 20 µM [inhibitor, partial curve, poor fit]
CCOC(=O)c1cc(CC)sc1N1C(=O)CC(Sc2ccccc2C(=O)O)C1=O (configuration not stated)	inactive

From PubChem BioAssay AID540256 (National Center for Advancing Translational Sciences (NCATS), 2011)
